Laboratory results from PMC2943901.

Biological target: myc tagged carboxyl terminus of palladin
Assay: co-IP; myc tagged palladin constructs co-transfected with flag tagged MRTF into HEK-293 cells; lysed 36 h after transfection; IP with myc antibody, blots with myc and flag antibodies

B1: flag tagged MRTF-A (protein, UniProt Q8K4J6-2 1-929)
chain: MPPLKSPAAFHEQRRSLERARTEDYLKRKIRSRPERAELVRMHILEETSAEPSLQAKQLKLKRARLADDLNEKIAQRPGPMELVEKNILPVESSLKEAIIVGQVNYPKVADSSSFDEDSSDALSPEQPASHESQGSVPSPLESRVSDPLPSATSISPTQVLSQLPMAPDPGETLFLAEQPPLPPAPLLPPSLANGSIVPTAKPAPTLIKQSQPKSASEKSQRSKKAKELKPKVKKLKYHQYIPPDQKQDKGAPAMDSSYAKILQQQQLFLQLQILNQQQQQQQQQHYNYQAILPAPPKPSAETPGSSAPTPSRSLSTSSSPSSGTPGPSGLARQSSTALAAKPGALPANLDDMKVAELKQELKLRSLPVSGTKTELIERLRAYQDQVSPAPGAPKAPATTSVLSKAGEVVVAFPAALLSTGSALVTAGLAPAEMVVATVTSNGMVKFGSTGSTPPVSPTPSERSLLSTGDENSTPGDAFGEMVTSPLTQLTLQASPLQIVKEEGARAASCCLSPGARAELEGLDKDQMLQEKDKQIEELTRMLQQKQQLVELLRLQLEQQKRAQQPAPASSPVKRESGFSSCQLSCQPQGSAHAFGSGLVVPTTNHGDTQAPAPESPPVVVKQEAGPPEPDLAPSSQLLLGSQGTSFLKRVSPPTLVTDSTGTHLILTVTNKSADGPGLPAGSPQQPLSQPGSPAPGPPAQMDLEHPPQPPFATPTSLLKKEPPGYEETVTQQPKQQENGSSSQHMDDLFDILIQSGEISADFKEPPSLPGKEKSPPAAAAYGPPLTPQPSPLSELPQAAPPPGSPTLPGRLEDFLESSTGLPLLTSGHEGPEPLSLIDDLHSQMLSSSAILDHPPSPMDTSELHFAPEPSSGMGLDLAVGHLDSMDWLELSSGGPVLSLAPLSTAAPSLFSMDFLDGHDLQLHWDSCL
  binding: binds

B2: flag tagged MRTF-B (protein, UniProt P59759 1-1080)
chain: MIDSSKKQPQGFPEILTAEDFEPFKEKECLEGSNQKSLKEVLQLRLQQRRTREQLVDQGIMPPLKSPAAFHEQIKSLERARTENFLKHKIRSRPDRSELVRMHILEETFAEPSLQATQMKLKRARLADDLNEKIAQRPGPMELVEKNILPVDSSVKEAIIGVVKEDYPHTHGEFSFDEDSSDALSPDQPASQESQGSAASPSEPKVSASPPPVTASTPAQFTSVSPAVPEFLKTPLTADQPPTRSTAPVLPTNTVSSAKSGPMLVKQSHPKNPNDKHRSKKCKDPKPRVKKLKYHQYIPPNQKGEKSEPQMDSNYARLLQQQQLFLQLQILSQQQQQQQQQHYNYQTILPAPIKTDKNSSSGSNSGSSSSMPARRPGPLPSSLDDLKVSELKTELKLRGLPVSGTKPDLIERLKPYQEVTSSNLATGSIVAVSSATIVTSNPEVTVALPVTTLHNAVTSSVSTFKADLALPATSSVPHVENAHSPLPISPSPSEQSSLSTDDTNMTDTFTEIMTMMSPSQLLCSSPLRVVSHDDSLSPSSSTLSTLELDAAEKDRKLQEKEKQIEELKRKLEQEQKLVEVLKMQLEVEKRGQQRPPDPQPSDPPHPFNTSDPKHGSVGSSIKDEASLPDCSSPQQPITVPGHSVGQPISTGSQTLVAKKTVVVKQEVPMAQAEQQNVVSQFYLSSQGQPPALVAQPQALLTTQTTQLLLPVSIQGSNVTSVQLPVGSLQLQTPAQGRVQAQPHVAAATQVPAAALPSALTSALPQKQEAFPQHVLGQPQPVRKVFTNSAPNTVLQYQRQPGPTNQQPFVSKTSNPALQSRTAPLAPLQNGPSLASKPSSPPPPQQFVVQHSLFATPITKTKDPPRYEEAIKQTRSTQPALPEVSSVHSQQMDDLFDILIKSGEISFPIKEEPSPISKMKPVTASITTMPVNTVVSRPPPQVQIAPPVSLEPVNSLSASLENQLEAFLDGTLPSATDTGPLQNSSEDRESFSLIEDLQNDLLSHSSMLYQSHSPMETSEAQLVSGTPCLSLDLSDSNLDNMEWLDITMPTTSSGLTPLSTTAPSMFSADFLDPQDLPLPWD
  binding: binds

Results are given in words; binding and its absence hold for the method and conditions named. In cells and extracts the contact can be indirect. Binding can be weak; no strength is given. Sequences can lack the tags named with a protein.
